We go through seven molecules from patent publication US10622572B2, “Organic thin-film transistor and method for manufacturing the same, material for organic thin-film transistor, composition for organic thin-film transistor, compound, and organic semiconductor film” (FUJIFILM Corporation, priority 2015, dated 2020).

Series [1] is described as follows: Carrier mobility, bottom gate-bottom contact-type element (drop casting). The note with it: drop casting of 0.1% by mass anisole solution, nitrogen atmosphere.
Series [2] in a line: Carrier mobility, bottom gate-top contact-type element by coating process. The note with it: 0.1% by mass anisole solution, −50 V source-drain, gate 20 V to −150 V.
A short description of series [3]: Carrier mobility, bottom gate-top contact-type element by deposition process. The note with it: vacuum deposited film 40 nm.
Series [4] can be described thus: Carrier mobility, bottom gate-bottom contact-type element by flexo printing method. The note with it: 0.5% compound + 0.5% poly α-methylstyrene + 0.05% BYK323 in tetralin.
The nature of series [5]: Carrier mobility, bottom gate-bottom contact-type element by ink jet method. The note with it: 0.1% by mass tetralin solution.

For `CCCCCCc1cc2ccc3c4ccc5c(ccc6cc(CCCCCC)sc65)c4ccc3c2s1` [Comparative compound 2, reference compound], the Carrier mobility result is reported as “D (<0.05 cm^2/Vs)” in series [1] and “C (0.05 cm^2/Vs or more to less than 0.1 cm^2//Vs)” in series [2].

Regarding `CCCCCCc1cc2c(ccc3c2ccc2c4ccc5sc(CCCCCC)cc5c4ccc32)s1` [Comparative compound 1, reference compound], the Carrier mobility result is on record as “D (<0.05 cm^2/Vs)” in series [1] and “C (0.05 cm^2/Vs or more to less than 0.1 cm^2//Vs)” in series [2].

As for `CC(C)[Si](C#Cc1cc2c(cc(C#C[Si](C(C)C)(C(C)C)C(C)C)c3c2ccc2cc(F)sc23)c2ccc3cc(F)sc3c12)(C(C)C)C(C)C` [Compound 4], the Carrier mobility result in series [3], in series [1], in series [2], in series [4] and in series [5] was “A (≥0.5 cm^2/Vs)” in each case.

On to `CCCCCCc1cc2cc3ccc4c5cc6sc(CCCCCC)cc6cc5ccc4c3cc2s1` [Comparative compound 3, reference compound], for which the Carrier mobility result in series [1] and in series [2] was “D (<0.05 cm^2/Vs)” throughout.

With `CC(C)[Si](C#Cc1cc2c(cc(C#C[Si](C(C)C)(C(C)C)C(C)C)c3c4ccsc4ccc23)c2ccc3sccc3c12)(C(C)C)C(C)C` [Compound 1], the Carrier mobility entry in series [3], in series [1], in series [2], in series [4] and in series [5] was “A (≥0.5 cm^2/Vs)” each time.

`CC(C)[Si](C#Cc1cc2c(cc(C#C[Si](C(C)C)(C(C)C)C(C)C)c3c4cc(F)sc4ccc23)c2ccc3sc(F)cc3c12)(C(C)C)C(C)C` [Compound 3]: the Carrier mobility entry in series [3], in series [1], in series [2], in series [4] and in series [5] was “A (≥0.5 cm^2/Vs)” each time.

On to `CC(C)[Si](C#Cc1cc2c(cc(C#C[Si](C(C)C)(C(C)C)C(C)C)c3c2ccc2ccsc23)c2ccc3ccsc3c12)(C(C)C)C(C)C` [Compound 2], for which the Carrier mobility result in series [3], in series [1], in series [2], in series [4] and in series [5] was “A (≥0.5 cm^2/Vs)” each time.
